How the values were obtained:
[1] = Cu(I)-catalyzed azide-alkyne cycloaddition of probes with fucose analogs, monitored by LC-MS; type: physicochemical
[2] = Stoichiometric study of L-histidine in the cycloaddition of 1a and 2a; settings: 2.0 mol equivalent histidine to copper
Protocol: The overall volume in each vial was 250 microliters containing a solution of 1,8-naphthalimide 1a (0.5 mM), azidofucose 2a (1.0 mM), CUSO4 (1.0 mM), L-histidine (0-3.0 mM) and sodium ascorbate (5.0 mM) in DMSO/water (56% DMSO). The reactions were allowed to stand at room temperature for 24 hours. The catalytic activity was determined by the same method described above (FIG. 10).
In this condition, 60% of 1a was converted to the product 10 after 1 h at room temperature and the reaction was completed in less than 6 h. To confirm the effects of L-His on the reaction, we measured the time-course of the reaction by fluorescence spectrometer. Conditions: 1,8-naphthalimide 1a (0.1 mM), azidofucose 2a (1.0 mM), CuSO4 (2.0 mM), L-histidine (0 or 4.0 mM) and sodium ascorbate (100 mM) in 50 mM HEPES buffer (containing 6% DMSO). After mixing all reagents, the fluorescence intensity was measured in 5 min intervals at 37° C. by a fluorescence spectrophotometer (FIG. 11). […] Fluorescence intensities were monitored at λ ex 357 nm and λem 462 nm.

Row | SMILES | conversion of 1a to 3a ([1]; after 24 h, same conditions, no ligand, with 2a, LC-MS) | time to completion of cycloaddition ([1]; reaction between 1a and 2a in the presence of Tris(triazolyl)amine ligand) | conversion of 1a to the product ([2]; after 1 h at room temperature) | time to completion of reaction ([2]; room temperature) | time to completion of cycloaddition ([1]; CuSO4/sodium ascorbate, no ligand, with fucose analog 2b)
1 | C#Cc1ccc2c3c(cccc13)C(=O)N(CC)C2=O [Compound 1a, 4-Ethynyl-N-ethyl-1,8-naphthalimide] | 10% | ≤ 30 min | 60% | less than 6 h | –
2 | CCN1C(=O)c2cccc3c(N=[N+]=[N-])ccc(c23)C1=O [Compound 1b, 4-Azido-N-ethyl-1,8-naphthalimide] | – | – | – | – | < 30 min
